# Inconclusive means that the source gave no clear call. Such entries were picked first, then a sample of the others. For some assays here: Potencies of inconclusive entries are doubtful fits and often do not repeat. Active and inactive are the calls of the source. Calls follow the shape of the dose curve; as a rule, active = well fitted curve in the direction sought with a large enough effect; inconclusive = small, poorly fitted or top-dose-only effect, or another doubt; inactive = no such curve, though single readings can be large; an effect the other way counts as inactive or inconclusive.
# Amino acid sequences for entries named in this document (tags omitted). A change or cut given only in a name is not applied to a line headed by its entry.
# UniProt O15648: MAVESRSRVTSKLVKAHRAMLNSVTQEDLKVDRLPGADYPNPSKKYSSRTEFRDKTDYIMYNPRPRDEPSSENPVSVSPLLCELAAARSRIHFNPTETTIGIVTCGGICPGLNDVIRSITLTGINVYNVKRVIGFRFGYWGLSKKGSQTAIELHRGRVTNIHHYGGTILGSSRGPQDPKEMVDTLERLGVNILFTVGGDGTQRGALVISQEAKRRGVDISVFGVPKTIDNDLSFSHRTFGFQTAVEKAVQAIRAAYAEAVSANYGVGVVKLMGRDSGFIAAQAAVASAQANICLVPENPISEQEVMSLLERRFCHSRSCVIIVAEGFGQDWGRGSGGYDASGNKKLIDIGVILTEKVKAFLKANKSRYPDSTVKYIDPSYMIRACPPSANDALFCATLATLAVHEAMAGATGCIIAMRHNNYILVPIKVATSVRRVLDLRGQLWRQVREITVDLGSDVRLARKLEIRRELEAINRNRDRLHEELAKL
# UniProt O94782: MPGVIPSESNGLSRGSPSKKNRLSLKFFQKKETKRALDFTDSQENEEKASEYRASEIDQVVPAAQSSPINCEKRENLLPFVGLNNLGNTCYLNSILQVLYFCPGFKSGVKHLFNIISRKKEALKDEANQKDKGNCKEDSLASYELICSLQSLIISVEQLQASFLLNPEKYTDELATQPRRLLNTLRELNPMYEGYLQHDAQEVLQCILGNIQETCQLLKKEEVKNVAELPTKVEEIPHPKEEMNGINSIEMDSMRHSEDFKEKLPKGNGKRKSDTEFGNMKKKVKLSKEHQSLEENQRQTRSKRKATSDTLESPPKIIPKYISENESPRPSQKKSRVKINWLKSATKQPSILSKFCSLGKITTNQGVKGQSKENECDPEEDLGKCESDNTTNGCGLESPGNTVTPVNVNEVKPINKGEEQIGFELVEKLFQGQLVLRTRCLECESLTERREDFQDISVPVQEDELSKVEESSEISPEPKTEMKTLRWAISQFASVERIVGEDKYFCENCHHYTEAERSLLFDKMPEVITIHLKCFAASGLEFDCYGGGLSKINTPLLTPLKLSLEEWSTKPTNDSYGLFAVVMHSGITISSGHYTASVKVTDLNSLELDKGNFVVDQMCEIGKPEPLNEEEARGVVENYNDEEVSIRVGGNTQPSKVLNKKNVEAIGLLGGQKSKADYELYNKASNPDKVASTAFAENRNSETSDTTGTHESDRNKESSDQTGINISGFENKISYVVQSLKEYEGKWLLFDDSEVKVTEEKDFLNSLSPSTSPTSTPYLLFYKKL
# UniProt P09958, whole entry, looked up: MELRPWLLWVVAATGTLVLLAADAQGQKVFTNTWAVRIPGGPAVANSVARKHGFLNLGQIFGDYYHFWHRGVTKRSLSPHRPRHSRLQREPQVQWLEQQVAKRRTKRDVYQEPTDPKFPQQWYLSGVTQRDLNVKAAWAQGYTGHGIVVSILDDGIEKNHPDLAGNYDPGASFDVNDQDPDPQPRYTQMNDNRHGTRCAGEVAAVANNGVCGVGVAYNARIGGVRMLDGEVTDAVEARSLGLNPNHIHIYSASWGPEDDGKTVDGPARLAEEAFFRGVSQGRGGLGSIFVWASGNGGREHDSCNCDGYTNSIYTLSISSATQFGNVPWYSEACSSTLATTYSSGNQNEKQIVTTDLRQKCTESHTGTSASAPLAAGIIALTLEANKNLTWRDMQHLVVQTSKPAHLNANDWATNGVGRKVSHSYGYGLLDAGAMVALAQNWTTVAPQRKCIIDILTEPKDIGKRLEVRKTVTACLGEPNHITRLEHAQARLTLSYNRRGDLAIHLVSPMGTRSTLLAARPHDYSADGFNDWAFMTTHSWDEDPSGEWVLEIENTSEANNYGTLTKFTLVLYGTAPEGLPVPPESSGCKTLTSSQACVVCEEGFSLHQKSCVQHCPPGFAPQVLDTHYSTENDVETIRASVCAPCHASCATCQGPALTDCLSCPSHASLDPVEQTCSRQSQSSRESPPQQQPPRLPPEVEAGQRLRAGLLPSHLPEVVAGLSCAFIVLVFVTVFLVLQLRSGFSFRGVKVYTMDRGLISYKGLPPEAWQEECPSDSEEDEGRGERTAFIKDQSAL
# UniProt P54132: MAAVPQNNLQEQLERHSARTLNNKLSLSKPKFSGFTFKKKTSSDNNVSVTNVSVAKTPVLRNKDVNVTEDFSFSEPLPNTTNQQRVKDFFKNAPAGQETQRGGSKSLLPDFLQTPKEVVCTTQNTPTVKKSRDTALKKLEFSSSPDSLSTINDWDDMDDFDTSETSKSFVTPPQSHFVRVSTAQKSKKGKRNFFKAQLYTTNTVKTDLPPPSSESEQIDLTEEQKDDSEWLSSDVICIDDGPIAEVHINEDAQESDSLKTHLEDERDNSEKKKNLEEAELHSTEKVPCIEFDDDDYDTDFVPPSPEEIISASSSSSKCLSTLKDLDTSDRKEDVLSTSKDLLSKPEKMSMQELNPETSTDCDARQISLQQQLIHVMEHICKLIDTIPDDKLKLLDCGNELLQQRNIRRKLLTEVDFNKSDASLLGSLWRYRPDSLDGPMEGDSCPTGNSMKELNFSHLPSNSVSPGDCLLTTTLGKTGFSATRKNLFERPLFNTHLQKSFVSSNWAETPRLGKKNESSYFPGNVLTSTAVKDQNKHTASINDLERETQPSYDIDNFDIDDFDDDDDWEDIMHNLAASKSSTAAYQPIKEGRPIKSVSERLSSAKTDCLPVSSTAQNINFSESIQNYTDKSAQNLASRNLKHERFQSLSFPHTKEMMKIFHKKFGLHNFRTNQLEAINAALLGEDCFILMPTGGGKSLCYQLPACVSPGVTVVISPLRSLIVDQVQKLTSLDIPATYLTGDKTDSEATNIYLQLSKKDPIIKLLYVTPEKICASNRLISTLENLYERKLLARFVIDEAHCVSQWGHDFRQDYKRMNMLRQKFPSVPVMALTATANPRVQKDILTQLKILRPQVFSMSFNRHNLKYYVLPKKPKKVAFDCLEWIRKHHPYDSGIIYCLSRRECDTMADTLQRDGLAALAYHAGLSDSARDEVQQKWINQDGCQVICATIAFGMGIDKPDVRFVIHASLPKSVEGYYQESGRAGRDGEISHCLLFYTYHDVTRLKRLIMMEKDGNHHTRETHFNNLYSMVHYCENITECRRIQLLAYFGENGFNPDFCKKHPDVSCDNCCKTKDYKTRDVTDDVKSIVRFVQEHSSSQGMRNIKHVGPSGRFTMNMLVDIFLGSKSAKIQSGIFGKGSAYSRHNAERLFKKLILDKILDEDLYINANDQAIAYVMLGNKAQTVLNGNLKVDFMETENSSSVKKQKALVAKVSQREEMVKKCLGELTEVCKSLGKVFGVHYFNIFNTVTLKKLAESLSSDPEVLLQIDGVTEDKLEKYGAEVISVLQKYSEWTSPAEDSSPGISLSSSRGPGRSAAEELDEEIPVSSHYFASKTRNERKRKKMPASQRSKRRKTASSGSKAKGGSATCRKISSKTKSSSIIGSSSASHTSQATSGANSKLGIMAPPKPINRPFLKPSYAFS
# Tests used:
# [1] = molecular target: ATP-dependent 6-phosphofructokinase (Trypanosoma brucei brucei) (UniProt O15648); experiment: qHTS Validation Assay to Find Inhibitors of T. brucei phosphofructokinase (AID 485368); also: potency is read from the fitted curve at half-maximal effect
# How it was run: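 Enzyme reaction in triethanolamine buffer pH 8.0 with 5 mM MgCl2, 0.01% Tween20 and 0.1% BSA; PFK 1.25 nM, F6P 0.5 mM, ATP 0.1 mM, 45 min RT. ADP quantified by ADP-Glo.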
# [2] = molecular target: Ubiquitin carboxyl-terminal hydrolase 1 (Homo sapiens) (UniProt O94782); experiment: Inhibitors of USP1/UAF1: Pilot qHTS (AID 504865); also: potency is read from the fitted curve at half-maximal effect; nearly all actives have a fitted effect of over 35% in size
# How it was run: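 Enzyme-free wells gave the negative control, while test wells held 1nM USP1/UAF1 preincubated with compound for 15 min at room temperature. Ub-Rho at 150nM final started the reaction, and fluorescence at 480/540 nm was recorded kinetically.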
# [3] = Primary qHTS for small molecule stabilizers of the endoplasmic reticulum resident proteome: Secreted ER Calcium Modulated Protein (SERCaMP) assay (AID 1508630); details: SH-SY5Y GLuc-SERCaMP secretion, thapsigargin, luminescence; activity change, negative = inhibition: at 38.4 µM (top of the series) unless noted; also: potency is read from the fitted curve at half-maximal effect; as to activity change, negative = inhibition: % is scaled to controls: 0 for no effect and ±100 for the full control effect
# How it was run: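 GLuc-SERCaMP-expressing SH-SY5Y cells, pretreated 16 h with compound, are challenged with thapsigargin to empty ER calcium stores; after 4 h, coelenterazine is added directly to the medium and luminescence is imaged.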
# [4] = molecular target: Furin (Homo sapiens) (UniProt P09958); experiment: Furin counterscreen qHTS for Zika virus inhibitors (AID 1347149); details: furin enzymatic counterscreen, fluorogenic substrate; activity change, negative = inhibition: at 114 µM (top of the series); also: nearly all actives have a fitted effect of over 70% in size; also: potency is read from the fitted curve at half-maximal effect;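 as to activity change, negative = inhibition: purified recombinant full-length human furin enzyme at 5 nM; fluorescence gain from furin cutting a BOC-RVRR-AMC peptide substrate over 15 min; top concentration of the series differs between compounds; plate controls were no-inhibitor control for no effect and no-enzyme control for full effect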
# How it was run: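 Fluorogenic cleavage of BOC-RVRR-AMC (2 microM final, Km ~15 µM) was monitored (ex 340, em 450 nm) at 37C after 15 min RT preincubation of 5 nM furin with compounds in HEPES pH 7.0 buffer with CaCl2 and Triton X-100. Percent inhibition was fitted to a 4-parameter Hill curve.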
# [5] = system: Zika virus NS2B-NS3 protease (linked construct); experiment: Confirmatory screen NINDS AMC qHTS for Zika virus inhibitors (AID 1347152); also: potency is read from the fitted curve at half-maximal effect; nearly all actives have a fitted effect of over 70% in size
# How it was run: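 Concentration-response confirmation used the NINDS linked protease (NS2B hydrophilic domain joined to NS3 protease domain), 1 nM, with a 15-min compound preincubation. Substrate, Nle-KRR-AMC at 10 microM, was read by UV fluorescence before and after 15 min.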
# [6] = ZIKV-mCherry secondary qHTS for Zika virus inhibitors (AID 1347158); details: Vero cells, ZIKV-mCherry infection imaging, 48-72 h; activity change, negative = inhibition: at 49.2 µM (top of the series); also: potency is read from the fitted curve at half-maximal effect; as to activity change, negative = inhibition: top concentration of the series differs between compounds
# How it was run: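 Vero cells, 5,000/well, plated overnight at 37 °C, then compound added and infected with recombinant ZIKV-mCherry at MOI 1 for 48-72 h. PFA-fixed, Hoechst nuclear stain, high-content imaging; cells with mCherry intensity above 450 RFU scored infected, reported as percent infection.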
# [7] = system: Zika virus NS2B-NS3 protease (linked); experiment: 384 well plate NINDS AMC confirmatory qHTS for Zika virus inhibitors (AID 1347163); also: potency is read from the fitted curve at half-maximal effect; nearly all actives have a fitted effect of over 50% in size
# How it was run: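 Linked protease 5/30/60 nM final; cpds up to 1 mM final, ~15 min preinc. Substrate Ac-VKTGKR-AMC 30 microM final. RT, dark, 25 min; FI ex 355/em 460; normalized to no-enzyme/no-inhibitor ctrls.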
# [8] = system: Zika virus NS2B-NS3 protease; experiment: Primary screen GU AMC qHTS for Zika virus inhibitors (AID 1347154); also: potency is read from the fitted curve at half-maximal effect; nearly all actives have a fitted effect of over 70% in size
# How it was run: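 Unlinked Zika NS2B hydrophilic domain/NS3 protease domain noncovalent complex (25 nM final) in 10 mM Tris-HCl pH 8.0, 0.01% Tween 20, with AMC peptide substrate. Fluorescence (ex 340, em 450 nm) change over 15 min, room temperature; percent inhibition fitted to 4-parameter Hill equation.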
# [9] = Tertiary RLuc qRT-PCR qHTS assay for Zika virus inhibitors (AID 1347169); also: potency is read from the fitted curve at half-maximal effect; nearly all actives have a fitted effect of over 55% in size
# How it was run: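 Inhibition of ZIKV-RLuc replication in Vero cells, read as Renilla luminescence 1-1.5 hrs after live-cell substrate addition, following 48-72 hrs infection at MOI 1-2 in presence of compound.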
# [10] = molecular target: RecQ-like DNA helicase BLM (Homo sapiens) (UniProt P54132); experiment: qHTS Validation Assay for Inhibitors of Bloom's syndrome helicase (BLM) (AID 2364);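 also: plate controls were DMSO vehicle for no effect and enzyme-free control for full effect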
# How it was run: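 BLM 50 nM in 25 mM Tris-HCl pH 8.0, 5 mM NaCl, 2 mM MgCl2, 1 mM DTT, 0.01% Tween-20, 2.5 ug/ml poly(dI-dC); 15 min cpd preinc, RT. Start: 200 nM forked DNA + 2 mM ATP (final). TAMRA read, 2 reads 2 h apart.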
# [11] = system: Zika virus NS2B-NS3 protease (unlinked); experiment: Optimization of GU AMC qHTS for Zika virus inhibitors: Unlinked NS2B-NS3 protease assay (AID 1347151); details: recombinant ZIKV NS2B-NS3 protease, fluorogenic AMC substrate; activity change, negative = inhibition: at 52.5 µM (top of the series) unless noted; also: potency is read from the fitted curve at half-maximal effect; nearly all actives have a fitted effect of over 80% in size
# How it was run: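 In this qHTS, compounds acted on 25 nM unlinked Zika NS2B–NS3 in pH 8.0 Tris/Tween buffer. Cleavage of an AMC peptide ran 15 min at room temperature, to about 20% conversion.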
smiles,measurement,setting,value
CC(O)C(O)[C@H]1CNc2nc(N)[nH]c(=O)c2N1 (some centres undefined),Potency,[1],"inconclusive: 37.9 µM [falling, single point]"
same,Potency,[2],"inconclusive: 112 µM [inhibitor, partial curve, poor fit]"
same,Potency,[3],inactive
CCOC(=O)c1c(-c2ccc(C)cc2)csc1NC(=O)c1cc(-c2ccc(Cl)cc2)on1,Potency,[4],inactive
O=C(NCc1ccccc1Cl)c1ccc2c(O)c(S(=O)(=O)c3ccccc3)c(=O)[nH]c2c1,Potency,[4],"inconclusive: 55.5 µM [inhibitor, partial curve]"
same,Potency,[5],"inconclusive: 87.9 µM [inhibitor, partial curve]"
same,Potency,[6],inactive
same,Potency,[7],"inconclusive: 447 µM [inhibitor, partial curve, poor fit]"
CCOC(=O)c1c(-c2ccccc2)csc1NC(=O)c1cc(-c2ccc(Cl)cc2)on1,Potency,[4],"inconclusive: 8.35 µM [inhibitor, full curve]"
CC(C)=CCc1c2c(c3occ(-c4ccc(O)c(O)c4)c(=O)c3c1O)C=CC(C)(C)O2,Potency,[4],"inconclusive: 13.6 µM [inhibitor, partial curve]"
same,Potency,[5],"inconclusive: 8.57 µM [inhibitor, full curve]"
same,Potency,[8],"inconclusive: 11.9 µM [inhibitor, partial curve, poor fit]"
same,Potency,[6],"inconclusive: 1.26 µM [inhibitor, full curve]"
same,Potency,[9],"inconclusive: 2.62 µM [inhibitor, full curve]"
same,Potency,[3],"inconclusive: 4.47 µM [inhibitor, partial curve, poor fit]"
C=C[C@@H]1CN2CC[C@@H]1C[C@H]2[C@H](O)c1ccnc2ccc(OC)cc12,Potency,[10],inactive
same,Potency,[1],"inconclusive: 0.0379 µM [falling, full curve, poor fit]"
same,Potency,[4],active: 24.1 µM
same,Potency,[11],"inconclusive: 10.6 µM [inhibitor, partial curve]"
same,Potency,[5],"inconclusive: 30.4 µM [inhibitor, partial curve, poor fit]"
same,Potency,[9],"inconclusive: 1.65 µM [inhibitor, full curve, poor fit]"
same,Potency,[3],"inconclusive: 10 µM [inhibitor, partial curve, poor fit]"
CCOC(=O)c1ccc(CN(Cc2ccc(F)cc2)S(=O)(=O)c2ccc(F)c(C(=O)Nc3ccccc3C(F)(F)F)c2)cc1,Potency,[4],"inconclusive: 46.9 µM [inhibitor, partial curve, poor fit]"
COc1cc(O)c2c(=O)cc(-c3ccc(OC)c(-c4c(O)cc(O)c5c(=O)cc(-c6ccc(O)cc6)oc45)c3)oc2c1,Potency,[2],"inconclusive: 63.1 µM [inhibitor, partial curve, poor fit]"
same,"activity change, negative = inhibition",[4],inconclusive: -33.8% [inhibitor]
same,Potency,[5],"inconclusive: 55.5 µM [inhibitor, partial curve]"
same,Potency,[6],active: 11.2 µM
same,Potency,[9],active: 16.5 µM
O=C(Nc1ccccc1C(=O)OCc1cc(=O)n2nc(C3CC3)sc2n1)c1cccc(Cl)c1,Potency,[4],"inconclusive: 18.7 µM [inhibitor, full curve, poor fit]"

# A different layout for part of the listing above:
smiles	measurement	setting	value
O=C(NCc1ccccc1Cl)c1ccc2c(O)c(S(=O)(=O)c3ccccc3)c(=O)[nH]c2c1	Potency	[4]	inconclusive: 55.5 µM [inhibitor, partial curve]
same	Potency	[5]	inconclusive: 87.9 µM [inhibitor, partial curve]
same	Potency	[7]	inconclusive: 447 µM [inhibitor, partial curve, poor fit]
C=C[C@@H]1CN2CC[C@@H]1C[C@H]2[C@H](O)c1ccnc2ccc(OC)cc12	Potency	[10]	inactive
same	Potency	[4]	active: 24.1 µM
same	Potency	[3]	inconclusive: 10 µM [inhibitor, partial curve, poor fit]

# From PubChem BioAssay (NCATS)
